Laboratory results reported in the supplement of paper PMC8728848.
The list shows a part of the results.

How the values were obtained:
Experiment in all cases: glycan array binding signal (z-score within array); higher = stronger binding
Settings in all cases: glycan notation: IUPAC condensed, linker removed
[1] = target: Gal(b1-4)GlcNAc(b1-3)Gal(b1-4)GlcNAc(b1-3)Gal(b1-4)GlcNAc(b1-3)Gal(b1-4)GlcNAc(b1-2)Man(a1-3)[Gal(b1-4)GlcNAc(b1-3)Gal(b1-4)GlcNAc(b1-3)Gal(b1-4)GlcNAc(b1-3)Gal(b1-4)GlcNAc(b1-2)Man(a1-6)]Man(b1-4)GlcNAc(b1-4)GlcNAc
Method in brief: (§1)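 Glycan array binding is given as a within-array Z-score, which can be read as non-binding when negative. The arrays, 3228 of them, came from the Consortium for Functional Glycomics database and were retained only where the protein sequence was available. Z-scores were averaged across arrays of the same protein sequence at different concentrations or buffers and across linkers.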

[2] = target: Gal(b1-4)GlcNAc(b1-3)Gal(b1-4)GlcNAc(b1-3)Gal(b1-4)GlcNAc(b1-3)Gal(b1-4)GlcNAc(b1-2)Man(a1-3)[Gal(b1-4)GlcNAc(b1-3)Gal(b1-4)GlcNAc(b1-3)Gal(b1-4)GlcNAc(b1-3)Gal(b1-4)GlcNAc(b1-2)Man(a1-6)]Man(b1-4)GlcNAc(b1-4)[Fuc(a1-6)]GlcNAc
Method in brief: as §1

[3] = target: Gal(b1-4)GlcNAc(b1-3)Gal(b1-4)GlcNAc(b1-3)Gal(b1-4)GlcNAc(b1-3)Gal(b1-4)GlcNAc(b1-2)[Gal(b1-4)GlcNAc(b1-3)Gal(b1-4)GlcNAc(b1-3)Gal(b1-4)GlcNAc(b1-3)Gal(b1-4)GlcNAc(b1-6)]Man(a1-6)[Gal(b1-4)GlcNAc(b1-3)Gal(b1-4)GlcNAc(b1-3)Gal(b1-4)GlcNAc(b1-3)Gal(b1-4)GlcNAc(b1-2)Man(a1-3)]Man(b1-4)GlcNAc(b1-4)[Fuc(a1-6)]GlcNAc
Method in brief: as §1

[4] = target: Gal(b1-4)GlcNAc(b1-3)Gal(b1-4)GlcNAc(b1-3)Gal(b1-4)GlcNAc(b1-3)Gal(b1-4)GlcNAc(b1-3)Gal(b1-4)GlcNAc(b1-2)Man(a1-3)[Gal(b1-4)GlcNAc(b1-3)Gal(b1-4)GlcNAc(b1-3)Gal(b1-4)GlcNAc(b1-3)Gal(b1-4)GlcNAc(b1-3)Gal(b1-4)GlcNAc(b1-2)Man(a1-6)]Man(b1-4)GlcNAc(b1-4)GlcNAc
Method in brief: as §1

[5] = target: Gal(b1-4)GlcNAc(b1-3)Gal(b1-4)GlcNAc(b1-3)Gal(b1-4)GlcNAc(b1-3)Gal(b1-4)GlcNAc(b1-3)Gal(b1-4)GlcNAc(b1-2)Man(a1-3)[Gal(b1-4)GlcNAc(b1-3)Gal(b1-4)GlcNAc(b1-3)Gal(b1-4)GlcNAc(b1-3)Gal(b1-4)GlcNAc(b1-3)Gal(b1-4)GlcNAc(b1-2)Man(a1-6)]Man(b1-4)GlcNAc(b1-4)[Fuc(a1-6)]GlcNAc
Method in brief: as §1

[6] = target: Gal(b1-4)GlcNAc(b1-3)Gal(b1-4)GlcNAc(b1-3)Gal(b1-4)GlcNAc(b1-3)Gal(b1-4)GlcNAc(b1-3)Gal(b1-4)GlcNAc(b1-2)[Gal(b1-4)GlcNAc(b1-3)Gal(b1-4)GlcNAc(b1-3)Gal(b1-4)GlcNAc(b1-3)Gal(b1-4)GlcNAc(b1-3)Gal(b1-4)GlcNAc(b1-6)]Man(a1-6)[Gal(b1-4)GlcNAc(b1-3)Gal(b1-4)GlcNAc(b1-3)Gal(b1-4)GlcNAc(b1-3)Gal(b1-4)GlcNAc(b1-3)Gal(b1-4)GlcNAc(b1-2)Man(a1-3)]Man(b1-4)GlcNAc(b1-4)[Fuc(a1-6)]GlcNAc
Method in brief: as §1

[7] = target: Gal(b1-4)GlcNAc(b1-3)Gal(b1-4)GlcNAc(b1-3)Gal(b1-4)GlcNAc(b1-3)Gal(b1-4)GlcNAc(b1-3)Gal(b1-4)GlcNAc(b1-3)Gal(b1-4)GlcNAc(b1-2)Man(a1-3)[Gal(b1-4)GlcNAc(b1-3)Gal(b1-4)GlcNAc(b1-3)Gal(b1-4)GlcNAc(b1-3)Gal(b1-4)GlcNAc(b1-3)Gal(b1-4)GlcNAc(b1-3)Gal(b1-4)GlcNAc(b1-2)Man(a1-6)]Man(b1-4)GlcNAc(b1-4)GlcNAc
Method in brief: as §1

[8] = target: Gal(b1-4)GlcNAc(b1-3)Gal(b1-4)GlcNAc(b1-3)GalNAc
Method in brief: as §1

[9] = target: Gal(b1-4)GlcNAc(b1-3)Gal(b1-4)GlcNAc(b1-3)[Gal(b1-4)GlcNAc(b1-3)Gal(b1-4)GlcNAc(b1-6)]GalNAc
Method in brief: as §1

[10] = target: Gal(b1-4)GlcNAc(b1-3)Gal(b1-4)GlcNAc(b1-6)[Gal(b1-3)]GalNAc
Method in brief: as §1

[11] = target: Gal(b1-4)GlcNAc(b1-3)Gal(b1-4)[Fuc(a1-3)]GlcNAc(b1-3)Gal(b1-4)[Fuc(a1-3)]GlcNAc
Method in brief: as §1

[12] = target: Gal(b1-4)GlcNAc(b1-3)GalNAc
Method in brief: as §1

[13] = target: Gal(b1-4)GlcNAc(b1-3)[Fuc(a1-3)GlcNAc(b1-6)]Gal(b1-4)Glc
Method in brief: as §1

[14] = target: Gal(b1-4)GlcNAc(b1-3)[Gal(b1-4)GlcNAc(b1-6)]Gal(b1-4)GlcNAc
Method in brief: as §1

[15] = target: Gal(b1-4)GlcNAc(b1-3)[GlcNAc(b1-6)]Gal(b1-4)GlcNAc
Method in brief: as §1

[16] = target: Gal(b1-4)GlcNAc(b1-6)Gal(b1-4)GlcNAc
Method in brief: as §1

[17] = target: Gal(b1-4)GlcNAc(b1-6)GalNAc
Method in brief: as §1

[18] = target: Gal(b1-4)GlcNAc(b1-6)[Gal(b1-3)]GalNAc
Method in brief: as §1

[19] = target: Gal(b1-4)GlcNAc(b1-6)[Gal(b1-4)GlcNAc(b1-3)]GalNAc
Method in brief: as §1

Gal(b1-4)GlcNAc6P = target: Gal(b1-4)GlcNAc6P
Method in brief: as §1

Gal(b1-6)Gal = target: Gal(b1-6)Gal
Method in brief: as §1

Gal3S(b1-3)GalNAc = target: Gal3S(b1-3)GalNAc
Method in brief: as §1

Gal3S(b1-3)GlcNAc = target: Gal3S(b1-3)GlcNAc
Method in brief: as §1

[20] = target: Gal3S(b1-3)[Fuc(a1-4)]GlcNAc
Method in brief: as §1

Gal3S(b1-4)Glc = target: Gal3S(b1-4)Glc
Method in brief: as §1

Gal3S(b1-4)Glc6S = target: Gal3S(b1-4)Glc6S
Method in brief: as §1

Gal3S(b1-4)GlcNAc = target: Gal3S(b1-4)GlcNAc
Method in brief: as §1

[21] = target: Gal3S(b1-4)[Fuc(a1-3)]Glc6S
Method in brief: as §1

[22] = target: Gal3S(b1-4)[Fuc(a1-3)]GlcNAc
Method in brief: as §1

[23] = target: Gal3S(b1-4)[Fuc(a1-3)]GlcNAc6S
Method in brief: as §1

Gal3S4S(b1-4)GlcNAc = target: Gal3S4S(b1-4)GlcNAc
Method in brief: as §1

Gal3S6S(b1-4)GlcNAc = target: Gal3S6S(b1-4)GlcNAc
Method in brief: as §1

Gal3S6S(b1-4)GlcNAc6S = target: Gal3S6S(b1-4)GlcNAc6S
Method in brief: as §1

Gal4S(b1-4)GlcNAc = target: Gal4S(b1-4)GlcNAc
Method in brief: as §1

Gal4S6S(b1-4)GlcNAc = target: Gal4S6S(b1-4)GlcNAc
Method in brief: as §1

Gal6P(b1-4)GlcNAc = target: Gal6P(b1-4)GlcNAc
Method in brief: as §1

Gal6S(b1-3)GlcNAc = target: Gal6S(b1-3)GlcNAc
Method in brief: as §1

Gal6S(b1-3)GlcNAc6S = target: Gal6S(b1-3)GlcNAc6S
Method in brief: as §1

B1: Epa21 (Candida glabrata) (protein)
chain: MGSSHHHHHHSSGLVPRGSHMASTPNIESHPQGCSPVDTSGIKPGLKMDLYRFPITPPGTGCWSWDWLTVTPDFPRSGYWKWPKIAEVDGVVGPLHLDSGHPTCDPLTSVLPHGFNYLQSITTTNFTMVLHGYFVPKQSGKYTFEFKADDALLLNLGAGNAFSCCDYNNSQYNQGEYLAYAIWSKNNQTATLYLEKGIYYPIRVFYHNRCCGAYMDVVYYFNDSPIPNRDFSGLLFSIPDSDSCDANI
- glycan array binding signal (z-score) [1]: 0.742
- glycan array binding signal (z-score) [2]: 1.27
- glycan array binding signal (z-score) [3]: 1.12
- glycan array binding signal (z-score) [4]: 0.995
- glycan array binding signal (z-score) [5]: 1.16
- glycan array binding signal (z-score) [6]: 1.77
- glycan array binding signal (z-score) [7]: -0.201
- glycan array binding signal (z-score) [8]: 0.441
- glycan array binding signal (z-score) [9]: 1.89
- glycan array binding signal (z-score) [10]: 2.73
- glycan array binding signal (z-score) [11]: -0.493
- glycan array binding signal (z-score) [12]: -0.525
- glycan array binding signal (z-score) [13]: -0.542
- glycan array binding signal (z-score) [14]: -0.161
- glycan array binding signal (z-score) [15]: 1.79
- glycan array binding signal (z-score) [16]: 0.03
- glycan array binding signal (z-score) [17]: -0.047
- glycan array binding signal (z-score) [18]: 0.616
- glycan array binding signal (z-score) [19]: -0.185
- glycan array binding signal (z-score) (Gal(b1-4)GlcNAc6P): 0.364
- glycan array binding signal (z-score) (Gal(b1-6)Gal): -0.1
- glycan array binding signal (z-score) (Gal3S(b1-3)GalNAc): -0.468
- glycan array binding signal (z-score) (Gal3S(b1-3)GlcNAc): -0.397
- glycan array binding signal (z-score) [20]: 1.21
- glycan array binding signal (z-score) (Gal3S(b1-4)Glc): -0.231
- glycan array binding signal (z-score) (Gal3S(b1-4)Glc6S): 0.033
- glycan array binding signal (z-score) (Gal3S(b1-4)GlcNAc): 0.019
- glycan array binding signal (z-score) [21]: 0.754
- glycan array binding signal (z-score) [22]: -0.198
- glycan array binding signal (z-score) [23]: 1.32
- glycan array binding signal (z-score) (Gal3S4S(b1-4)GlcNAc): -0.174
- glycan array binding signal (z-score) (Gal3S6S(b1-4)GlcNAc): 0.658
- glycan array binding signal (z-score) (Gal3S6S(b1-4)GlcNAc6S): 2.16
- glycan array binding signal (z-score) (Gal4S(b1-4)GlcNAc): -0.79
- glycan array binding signal (z-score) (Gal4S6S(b1-4)GlcNAc): -0.52
- glycan array binding signal (z-score) (Gal6P(b1-4)GlcNAc): -0.473
- glycan array binding signal (z-score) (Gal6S(b1-3)GlcNAc): 0.687
- glycan array binding signal (z-score) (Gal6S(b1-3)GlcNAc6S): 1.07
